Some of the results follow. Residues, ends and D or L forms follow the SMILES beside them. *: point of attachment. Cbz = O=C(OCc1ccccc1)*
Experiments:
Experiment in all cases: log2 fold change, soluble protein after heating vs DMSO (PISA); higher = thermal stabilisation; K562 cells, 10 uM, 30 min; active = over 0.2 and 3.5 SD of the protein, either way, in both replicates (recomputed)
[1] = compound: C1COCCN1CCN2C3=CC=CC=C3N=C2NC(=O)C4=CC(=CC=C4)[N+](=O)[O-] [IRAK-1-4 Inhibitor I]
Method in brief: (§1)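 K562 cells at 2×10^6 cells/mL were given 10 μM compound for 30 min. Aliquots then went through 3 min of heating across 48°C-58°C, were pooled, and were extracted in PBS with 0.5% NP-40 at 4°C, and the supernatant after 21,000xg for 90 min was quantified by TMTpro 16plex LC-MS/MS with channel sums equalised. Thermal stability relative to control samples, from duplicates, is given as log2 fold change.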

The chains behind the UniProt entries cited, without tags or fusion partners. Where a name states a change or a piece, a line headed by the entry shows the natural chain unless it says otherwise.
UniProt Q8WUE5: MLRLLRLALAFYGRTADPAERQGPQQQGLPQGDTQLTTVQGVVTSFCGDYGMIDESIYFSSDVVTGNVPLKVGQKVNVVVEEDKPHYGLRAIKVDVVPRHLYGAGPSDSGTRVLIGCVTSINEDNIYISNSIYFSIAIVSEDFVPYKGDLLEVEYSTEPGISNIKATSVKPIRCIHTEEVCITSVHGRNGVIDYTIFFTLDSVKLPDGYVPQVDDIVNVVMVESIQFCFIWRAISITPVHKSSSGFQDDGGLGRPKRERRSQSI
UniProt Q9H467: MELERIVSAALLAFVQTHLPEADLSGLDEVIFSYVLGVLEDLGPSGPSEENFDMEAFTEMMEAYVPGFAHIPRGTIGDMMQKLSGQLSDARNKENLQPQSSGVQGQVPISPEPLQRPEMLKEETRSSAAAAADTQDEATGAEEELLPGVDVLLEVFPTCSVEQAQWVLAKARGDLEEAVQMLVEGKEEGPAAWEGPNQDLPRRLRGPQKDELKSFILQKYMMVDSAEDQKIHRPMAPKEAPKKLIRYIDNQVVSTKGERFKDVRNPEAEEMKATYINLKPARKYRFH
UniProt Q7LFL8: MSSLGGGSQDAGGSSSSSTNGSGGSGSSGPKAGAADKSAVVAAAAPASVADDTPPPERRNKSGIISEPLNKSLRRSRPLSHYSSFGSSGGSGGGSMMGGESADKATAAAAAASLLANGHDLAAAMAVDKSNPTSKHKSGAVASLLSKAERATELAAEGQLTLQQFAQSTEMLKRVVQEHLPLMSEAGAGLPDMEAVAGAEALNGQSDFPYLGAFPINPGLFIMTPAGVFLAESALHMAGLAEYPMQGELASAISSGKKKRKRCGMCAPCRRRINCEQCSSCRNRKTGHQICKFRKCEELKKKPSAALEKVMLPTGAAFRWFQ

[2] = compound: C=CC(=O)N1CCC[C@@H](n2nc(-c3ccc(Oc4ccccc4)cc3)c3c(N)ncnc32)C1 [ibrutinib]
Method in brief: as §1

[3] = compound: CC(=O)c1cnc2ccc(-c3cc(Cl)c(O)c(Cl)c3)nc2c1N[C@H]1CC[C@H](CN(C)C)CC1
Method in brief: as §1

[4] = compound: CC(C)(O)CC(=O)NCCn1ccc2ncnc(Nc3ccc(Oc4cccc(C(F)(F)F)c4)c(Cl)c3)c21
Method in brief: as §1

[5] = compound: CC(C)C1=C2N=C(C=C(N2N=C1)NCC3=CC=CC=C3)NCCCCCCN
Method in brief: as §1

[6] = compound: CC(C)N(C[C@H]1O[C@@H](n2cnc3c(N)ncnc32)[C@H](O)[C@@H]1O)[C@H]1C[C@@H](CCc2nc3cc(C(C)(C)C)ccc3[nH]2)C1 [pinometostat]
Method in brief: as §1

[7] = compound: CC1=C(C(CC(=O)N1)C2=CC=C(C=C2)C(F)(F)F)C(=O)NC3=C(C=C4C(=C3)C=NN4)F
Method in brief: as §1

[8] = compound: CC1=C(C2=C(C=C1)C(=O)C3=CC=CC=C3N2CCCN)C
Method in brief: as §1

[9] = compound: CC1=C(C=C(C=C1)NC(=O)C2=CC(=CC=C2)C(C)(C)C#N)NC3=CC4=C(C=C3)N=CN(C4=O)C
Method in brief: as §1

[10] = compound: CC1=CC=C(C=C1)SC2=C3C=C(SC3=CN=C2)C(=O)N
Method in brief: as §1

[11] = compound: CC1=NC(=CC=C1)C2=C(N=C(N2)C(C)(C)C)C3=CC4=NC=CN=C4C=C3
Method in brief: as §1

[12] = compound: CCCCN(Cc1ccc(C(=O)NO)cc1)C(=O)Nc1ccccc1 [Nexturastat A]
Method in brief: as §1

[13] = compound: CCCS(=O)(=O)Nc1ccc(F)c(C(=O)c2c[nH]c3ncc(-c4ccc(Cl)cc4)cc23)c1F [vemurafenib]
Method in brief: as §1

[14] = compound: CCCS(=O)(=O)Nc1ccc(F)c(C(=O)c2c[nH]c3ncc(Cl)cc23)c1F
Method in brief: as §1

[15] = compound: CCCc1cc(C)[nH]c(=O)c1CNC(=O)c1cc(-c2ccnc(N3CCN(C)CC3)c2)cc2c1cnn2C(C)C
Method in brief: as §1

[16] = compound: CCN(CC)Cc1ccc2cc(COC(=O)Nc3ccc(C(=O)NO)cc3)ccc2c1 [givinostat]
Method in brief: as §1

[17] = compound: CCN(CCCOc1ccc2c(Nc3cc(CC(=O)Nc4cccc(F)c4)[nH]n3)ncnc2c1)CCOP(=O)(O)O [barasertib]
Method in brief: as §1

[18] = compound: CC(C)(C)Cn1c(N)nc2ccc(-c3[nH]c(C(C)(C)C)nc3-c3ccc(F)cc3)nc21 [ralimetinib]
Method in brief: as §1

[19] = compound: CC(C)C[C@@H](C=O)NC(=O)[C@H](CC(C)C)NC(=O)[C@H](CC(C)C)NC(=O)OCc1ccccc1
Method in brief: as §1

[20] = compound: CC1=C(C=C(C=C1)NC(=O)C2=CC(=CC=C2)N(C)C)NC(=O)C3=CC=C(C=C3)O
Method in brief: as §1

Measured: log2 fold change

CT55 (UniProt Q8WUE5)
inactive: [1] -0.071 | [2] 0.015 | [3] -0.056 | [4] 0.023 | [5] -0.118 | [6] 0.006 | [7] -0.136 | [8] 0.008 | [9] -0.003 | [10] 0.051 | [11] -0.021 | [12] -0.02 | [13] -0.01 | [14] 0.044 | [15] -0.19 | [16] 0.096 | [17] 0.05

CUEDC2 (UniProt Q9H467)
inactive: [1] 0.035 | [2] -0.011 | [3] 0.003 | [18] -0.026 | [4] -0.056 | [5] -0.003 | [19] 0.198 | [6] -0.001 | [8] -0.159 | [9] -0.03 | [20] -0.043 | [10] -0.001 | [11] -0.153 | [12] -0.019 | [13] 0.009 | [14] 0.032 | [15] -0.01 | [16] 0.055 | [17] 0.091

CXXC5 (UniProt Q7LFL8)
inactive: [18] 0.009 | [4] -0.117 | [5] 0.061 | [19] 0.179 | [20] -0.056 | [12] 0.116 | [16] -0.083
